No constants are given. Whether binding was seen depends on the method and setting. Binding seen in cells or lysates may run through a third protein. These calls come from enrichment with a bait or labelling near it, and not all partners need be listed.
Legend:
[1] = molecular target: T1, Lissencephaly-1 (LIS1), mouse, endogenous in mESCs (mouse (endogenous in mESCs)) (UniProt P63005); experiment: affinity purification with mass spectrometry; anti-LIS1 IP from whole-cell lysates (cytoplasm and nuclear extracts) of AGO1-4 KO mESCs without doxycycline (no Argonaute proteins); compared with Dox.AGO2
T1 sequence: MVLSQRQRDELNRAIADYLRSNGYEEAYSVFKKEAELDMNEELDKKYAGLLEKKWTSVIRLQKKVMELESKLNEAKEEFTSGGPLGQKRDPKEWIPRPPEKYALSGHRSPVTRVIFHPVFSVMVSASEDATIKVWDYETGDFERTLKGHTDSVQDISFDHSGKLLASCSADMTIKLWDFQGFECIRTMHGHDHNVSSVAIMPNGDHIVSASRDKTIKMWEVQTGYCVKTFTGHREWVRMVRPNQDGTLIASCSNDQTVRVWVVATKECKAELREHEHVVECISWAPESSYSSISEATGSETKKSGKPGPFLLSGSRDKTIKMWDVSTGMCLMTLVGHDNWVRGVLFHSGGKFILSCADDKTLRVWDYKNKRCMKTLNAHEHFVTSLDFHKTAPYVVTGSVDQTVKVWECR

By UniProt entry, the sequences of proteins in these tests, tags left out.
UniProt P45591: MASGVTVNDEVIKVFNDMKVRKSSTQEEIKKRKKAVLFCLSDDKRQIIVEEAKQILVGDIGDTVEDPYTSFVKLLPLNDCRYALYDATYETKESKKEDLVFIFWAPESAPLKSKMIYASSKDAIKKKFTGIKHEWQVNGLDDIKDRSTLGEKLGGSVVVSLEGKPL
UniProt Q9UKV8: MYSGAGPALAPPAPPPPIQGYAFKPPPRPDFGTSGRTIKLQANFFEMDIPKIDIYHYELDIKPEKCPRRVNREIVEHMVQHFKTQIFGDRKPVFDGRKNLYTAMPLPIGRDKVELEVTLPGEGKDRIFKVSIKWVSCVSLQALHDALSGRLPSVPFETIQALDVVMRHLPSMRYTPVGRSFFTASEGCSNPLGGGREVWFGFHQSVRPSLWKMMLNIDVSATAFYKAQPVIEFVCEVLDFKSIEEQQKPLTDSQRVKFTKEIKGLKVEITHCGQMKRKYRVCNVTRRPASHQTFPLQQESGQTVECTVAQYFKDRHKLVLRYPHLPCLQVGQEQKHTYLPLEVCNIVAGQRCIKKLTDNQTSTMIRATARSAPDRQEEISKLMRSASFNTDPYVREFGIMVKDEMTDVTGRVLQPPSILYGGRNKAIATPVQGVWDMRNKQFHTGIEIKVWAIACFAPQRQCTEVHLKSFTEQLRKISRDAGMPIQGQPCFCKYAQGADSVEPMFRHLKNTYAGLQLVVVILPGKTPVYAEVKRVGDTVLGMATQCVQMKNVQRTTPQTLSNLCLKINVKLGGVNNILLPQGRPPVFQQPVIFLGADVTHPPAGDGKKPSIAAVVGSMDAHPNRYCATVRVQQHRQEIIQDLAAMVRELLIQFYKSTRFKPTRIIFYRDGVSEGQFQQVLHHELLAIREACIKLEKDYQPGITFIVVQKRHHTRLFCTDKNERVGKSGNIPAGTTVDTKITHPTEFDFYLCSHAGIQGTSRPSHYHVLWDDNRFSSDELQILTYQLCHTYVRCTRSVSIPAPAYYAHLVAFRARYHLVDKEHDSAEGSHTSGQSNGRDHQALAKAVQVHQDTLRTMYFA
UniProt P14873: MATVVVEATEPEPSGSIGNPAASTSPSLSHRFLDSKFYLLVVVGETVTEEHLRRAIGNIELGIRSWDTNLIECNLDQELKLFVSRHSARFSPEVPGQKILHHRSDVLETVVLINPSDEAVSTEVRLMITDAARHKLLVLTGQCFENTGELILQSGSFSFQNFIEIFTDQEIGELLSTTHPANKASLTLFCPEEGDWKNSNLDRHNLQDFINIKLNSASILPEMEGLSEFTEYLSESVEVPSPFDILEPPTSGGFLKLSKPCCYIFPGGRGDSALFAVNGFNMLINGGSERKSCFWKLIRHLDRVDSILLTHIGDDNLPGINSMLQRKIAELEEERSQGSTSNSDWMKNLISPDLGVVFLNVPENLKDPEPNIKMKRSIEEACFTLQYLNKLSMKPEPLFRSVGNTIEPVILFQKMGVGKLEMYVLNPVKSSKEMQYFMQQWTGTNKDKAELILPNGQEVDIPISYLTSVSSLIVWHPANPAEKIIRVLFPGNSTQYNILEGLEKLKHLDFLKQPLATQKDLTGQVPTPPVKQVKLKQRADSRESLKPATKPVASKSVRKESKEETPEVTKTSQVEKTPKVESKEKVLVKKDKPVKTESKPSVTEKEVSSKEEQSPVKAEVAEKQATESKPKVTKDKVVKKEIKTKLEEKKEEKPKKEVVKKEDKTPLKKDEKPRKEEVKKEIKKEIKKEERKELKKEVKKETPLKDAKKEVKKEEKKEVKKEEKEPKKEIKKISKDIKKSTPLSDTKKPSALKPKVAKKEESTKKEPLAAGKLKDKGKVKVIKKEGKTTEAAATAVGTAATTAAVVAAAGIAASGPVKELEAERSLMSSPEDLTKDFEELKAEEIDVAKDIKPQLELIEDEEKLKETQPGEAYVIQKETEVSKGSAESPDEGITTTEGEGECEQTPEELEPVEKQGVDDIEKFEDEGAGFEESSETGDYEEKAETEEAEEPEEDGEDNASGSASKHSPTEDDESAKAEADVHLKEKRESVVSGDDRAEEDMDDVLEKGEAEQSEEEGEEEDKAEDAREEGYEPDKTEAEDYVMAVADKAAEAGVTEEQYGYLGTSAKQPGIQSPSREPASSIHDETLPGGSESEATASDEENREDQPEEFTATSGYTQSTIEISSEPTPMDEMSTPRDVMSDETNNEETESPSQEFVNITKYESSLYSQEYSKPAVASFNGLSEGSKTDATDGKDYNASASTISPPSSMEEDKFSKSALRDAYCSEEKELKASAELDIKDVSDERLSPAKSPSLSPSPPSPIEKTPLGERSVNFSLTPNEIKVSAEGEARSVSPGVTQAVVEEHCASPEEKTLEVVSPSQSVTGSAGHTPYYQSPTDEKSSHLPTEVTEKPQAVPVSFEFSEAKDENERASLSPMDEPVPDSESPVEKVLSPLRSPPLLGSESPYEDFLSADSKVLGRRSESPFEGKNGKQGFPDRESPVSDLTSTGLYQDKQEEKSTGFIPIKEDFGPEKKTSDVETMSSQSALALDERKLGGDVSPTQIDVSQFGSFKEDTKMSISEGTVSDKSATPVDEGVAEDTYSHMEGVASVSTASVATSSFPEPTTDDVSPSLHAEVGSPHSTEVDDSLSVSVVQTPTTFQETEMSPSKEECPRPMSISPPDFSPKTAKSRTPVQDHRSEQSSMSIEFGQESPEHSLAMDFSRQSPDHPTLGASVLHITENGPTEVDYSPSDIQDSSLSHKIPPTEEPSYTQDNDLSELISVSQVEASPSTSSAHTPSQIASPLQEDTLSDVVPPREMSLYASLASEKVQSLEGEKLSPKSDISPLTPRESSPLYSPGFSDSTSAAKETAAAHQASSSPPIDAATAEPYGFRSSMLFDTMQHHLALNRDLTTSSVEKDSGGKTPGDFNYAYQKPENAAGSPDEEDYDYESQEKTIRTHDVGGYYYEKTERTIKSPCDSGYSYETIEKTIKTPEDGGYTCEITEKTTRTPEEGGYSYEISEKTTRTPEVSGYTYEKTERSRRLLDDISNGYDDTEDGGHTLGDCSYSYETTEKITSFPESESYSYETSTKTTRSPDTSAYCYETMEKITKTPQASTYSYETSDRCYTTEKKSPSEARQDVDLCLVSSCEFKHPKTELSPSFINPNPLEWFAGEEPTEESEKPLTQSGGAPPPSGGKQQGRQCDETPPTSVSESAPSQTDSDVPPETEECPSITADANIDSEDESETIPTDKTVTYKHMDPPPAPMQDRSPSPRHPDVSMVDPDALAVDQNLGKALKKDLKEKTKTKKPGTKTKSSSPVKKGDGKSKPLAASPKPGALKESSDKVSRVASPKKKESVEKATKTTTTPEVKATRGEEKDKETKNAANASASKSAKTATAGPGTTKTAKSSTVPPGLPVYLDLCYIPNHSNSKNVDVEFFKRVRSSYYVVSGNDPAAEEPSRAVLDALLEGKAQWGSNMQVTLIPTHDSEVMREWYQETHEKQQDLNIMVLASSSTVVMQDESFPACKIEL

[2] = molecular target: T1, Lissencephaly-1 (LIS1), mouse, endogenous in mESCs (mouse (endogenous in mESCs)); experiment: affinity purification with mass spectrometry; anti-LIS1 IP or IgG from whole-cell lysates (cytoplasm and nuclear extracts) of AGO1-4 KO mESCs with doxycycline-induced human AGO2 (Dox.AGO2)
[3] = molecular target: T1, Lissencephaly-1 (LIS1), mouse, endogenous in mESCs (mouse (endogenous in mESCs)); experiment: affinity purification with mass spectrometry; anti-LIS1 (338) IP on protein A/G beads from cytoplasmic and nuclear extracts of WT, F/- and LIS1-dsRED OE mESCs; IP buffer 50 mM Tris-HCl pH 7.5, 150 mM NaCl, 1% Triton X-100, 6 h at 4 °C; LC-MS/MS

cofilin-2 (CFL2) (from UniProt P45591 1-166)
binding [1]: binds

human AGO2, doxycycline-induced in Ago1,2,3,4 knockout mESCs (from UniProt Q9UKV8 1-859)
binding [2]: binds

microtubule-associated protein MAP1B (from UniProt P14873 1-2464)
binding [1]: binds

B1: centrosomal protein CEP55 (protein, UniProt Q8BT07 1-462)
chain: MSSRSPKDLIKSKWGSRPSSSKSDTALEKFKGEIAAFKTSLDEITSGKGKMAEKGRSRLLEKIQVLEAEREKNVYYLLEKDKEIQRLKDHLRSRYSSSSLFEQLEEKTKECEKKQQLLESLSKETDVLKNQLSATTKRLSELESKASTLHLSQSMPANCFNSSMNSIHEKEMQLKDALEKNQQWLVYDQQREAYVKGLLAKIFELEKRTETAAASLTQQMKKIESEGYLQVEKQKYDHLLENAKKDLEVERQAVTQLRLELDEFRRKYEEARKEVEDLNQLLSSQRKADIQHLEEDKQKTERIQKLREESSIFKGKLEEERKRSEELLSQVRILYDSLLKHQEEQARVALLEQQMQACTLDFENEKLDRQNMQHQLYVILKELRKAKSQITQLESLKQLHGFTITEQPFPLQREPESRVKATSPKSPSAALNDSLVECPKCSVQYPATEHRDLLVHVEYCMK
binding [1]: binds

B2: kinetochore protein ZWINT (protein, UniProt Q9CQU5 1-252)
chain: MADAEKNAVAEKNNAVATKEVLAEAAAILEPVGLQEEAELPAKIMEEFMRNSRKKDKLLCSQLQVVNFLQTFLAQEDTEQSPDALASEDASRQKATETKEQWKDMKATYMDHVDVIKCALSEALPQVKEAHRKYTELQKAFEQLEAKKRVLEEKLQLAQKQWVLQQKRLQNLTKISAEVKRRRKRALEKLDGSHQELETLKQQAGQEQEKLQRNQSYLQLLCSLQNKLVISEGKAEDKDVKGRALTAKSKSP
binding [1]: binds

B3: LIN28a (protein, UniProt Q8K3Y3 1-209)
chain: MGSVSNQQFAGGCAKAAEKAPEEAPPDAARAADEPQLLHGAGICKWFNVRMGFGFLSMTARAGVALDPPVDVFVHQSKLHMEGFRSLKEGEAVEFTFKKSAKGLESIRVTGPGGVFCIGSERRPKGKNMQKRRSKGDRCYNCGGLDHHAKECKLPPQPKKCHFCQSINHMVASCPLKAQQGPSSQGKPAYFREEEEEIHSPALLPEAQN
binding [3]: binds

Reference: article PMC10244377
